Experimental data taken from patent US20170247448A1.
Substitutions are numbered along the chain they refer to. No constants are given. Whether binding was seen depends on the method and setting. Some results given as binding are weak or reduced against the parent protein; the word gives no strength.

What was measured:
MAb 583 = assay: competition ELISA on MAb 583 coated plate; competitor NT-biotin hepcidin-25
BAP070-hum01 [1] = assay: C-ELISA on goat anti-human Fc coat, hepcidin titrated against a labelled tracer not named for this figure; the signal falls as hepcidin occupies the antibody
BAP070-hum02 [2] = assay: as above
BAP070-hum03 [3] = assay: as above
BAP070-hum04 [4] = assay: as above
BAP070-hum05 [5] = assay: as above
BAP070-hum06 [6] = assay: as above
BAP070-hum01 [7] = assay: anti-human Fc coated c-ELISA, antibody 30 ng/well (title of the figure), hepcidin titrated against a labelled tracer not named for this figure; same data as FIG. 20A
BAP070-hum02 [8] = assay: as above
BAP070-hum03 [9] = assay: as above
BAP070-hum04 [10] = assay: as above
BAP070-hum05 [11] = assay: as above
BAP070-hum06 [12] = assay: as above
[13] = target: T1, Human hepcidin peptide (hepcidin-25) (human); assay: titration affinity ELISA
T1 sequence (peptide): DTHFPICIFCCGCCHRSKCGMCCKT

[14] = target: T1, Human hepcidin peptide (hepcidin-25) (human); assay: titration affinity ELISA, plate-bound hepcidin, CHO supernatant
[15] = target: T2, Human hepcidin-20 peptide (hepcidin-20) (human); assay: Western blot after reducing SDS-PAGE
T2 sequence (peptide): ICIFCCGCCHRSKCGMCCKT

[16] = target: T3, Human hepcidin 22 peptide (hepcidin-22) (human); assay: Western blot after non-reducing tricine SDS-PAGE
T3 sequence (peptide): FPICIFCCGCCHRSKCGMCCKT

[17] = target: T2, Human hepcidin-20 peptide (hepcidin-20) (human); assay: Western blot after non-reducing tricine SDS-PAGE

Measured: binding

DTHFPICIFCCGCCHRSKCGMCCKT [Human hepcidin peptide (hepcidin-25)]
not listed: [13] | [14] | [15] | [16] | [17]
binds: all other assays above

B1: BAP070-hum01 (antibody, IgG1, V domains shown)
VH: QVQLVQSGAEVKKPGASVKVSCKASGYTFTNYGMNWVRQARGQRLEWIGWINTYTGEPTYADDFKGRLTISKDTSKNQVVLTMTNMDPVDTATYYCTTYATSWYWGQG
VL: DIQMTQSPSSLSASVGDRVTITCRASESVDSYGNSFMHWYQQKPGQAPRLLIYRASNLESGVPSRFSGSGSGTDFTFTISSLQPEDIATYYCQQSNEDLTFG
binds: [13] | [14]

B2: BAP070-hum02 (antibody, IgG1, V domains shown)
VH: B1 VH
VL: AIQLTQSPSSLSASVGDRVTITCRASESVDSYGNSFMHWYQQKPGKAPKLLIYRASNLESGIPARFSGSGSGTEFTLTISSLQSEDFAVYYCQQSNEDLTFG
binds: [13] | [14]

B3: BAP070-hum03 (antibody, IgG1, V domains shown)
VH: QVQLVQSGAEVKKPGASVKVSCKASGYTFTNYGMNWVRQATGQGLEWMGWINTYTGEPTYADDFKGRFVFSLDTSVSTAYLQICSLKAEDTAVYYCTTYATSWYWGQG
VL: B1 VL with D1A, M4L
binds: [13] | [14]

B4: BAP070-hum04 (antibody, V domains shown)
VH: B1 VH
VL: AIQLTQSPSSLSASVGDRVTITCRASESVDSYGNSFMHWFQQRPGQSPRRLIYRASNLESGIPPRFSGSGYGTDFTLTINNIESEDAAYYFCQQSNEDLTFG
binds: [13] | [14]

B5: BAP070-hum05 (antibody, IgG1, V domains shown)
VH: EVQLVQSGAEVKKPGESLRISCKGSGYTFTNYGMNWIRQPPGKGLEWIGWINTYTGEPTYADDFKGRVTISADKSISTAYLQWSSLKASDTAMYYCTTYATSWYWGQG
VL: B1 VL
binds: [13] | [14]

B6: BAP070-hum06 (antibody, IgG1, V domains shown)
VH: B5 VH
VL: B1 VL with D1A, M4L
binds: [13] | [14]

B7: MAb 583 (antibody, V domains shown)
VH: QIQLVQSGPELKKPGETVKISCKASGYTFTNYGMNWVKQAPGKGLKWMGWINTYTGEPTYADDFKGRFAFSLETSASTAYLQINNLKNEDTATYFCTTYATSWYWGQG
VL: DIVLTQSPASLAVSLGQRATISCRASESVDSYGNSFMHWYQQKPGQPPKLLIYRASNLESGIPARFSGSGSRTDFTLTINPVEADDVATYYCQQSNEDLTFG
binds: [15] | [16] | [17]

FPICIFCCGCCHRSKCGMCCKT [Human hepcidin 22 peptide (hepcidin-22)]
binds: MAb 583

ICIFCCGCCHRSKCGMCCKT [Human hepcidin-20 peptide (hepcidin-20)]
binds: MAb 583
